# Experimental data from PubChem BioAssay AID330 (DTP/NCI, 2004).
# The list shows only some results of the screen, not a fair sample: it gathers some chemical classes. Not every dose and run of a compound is shown. T/C is the treated group as % of the vehicle group. Some entries give survivors of the animals treated and no T/C: the source holds a T/C of zero for them, seemingly a mark for toxic or unscored doses. Survivors were counted at the toxicity check, usually on the fifth day, unless a day is given; later deaths do not show. Schedules are NCI's codes, taken here to give the interval after Q, in days (D) or hours (H), and the number of doses after X. Some entries hold several experiments; the results are listed from low to high. Where survival is the endpoint, the PubChem record calls one and a half times the control and up active, and a quarter to a half above the control has no call in these data; cut-offs in other NCI protocols can differ. Some entries show no survivor count and are marked so; the dose need not have been tolerated. Signs of the kind (2×) stand for listed records that agree.
# Test system: P388 leukemia ip, CD2F1 mice, survival T/C
# Experiment: NCI In Vivo Anticancer Drug Screen. Data for tumor model P388 Leukemia (intraperitoneal) in CD2F1 (CDF1) mice
# Conditions: T/C endpoint: median survival time, higher T/C = longer survival
# [1] = dose: 25.0 mg/kg/injection, schedule: Q01DX009 (ip), vehicle: saline with Tween-80
# [2] = dose: 50.0 mg/kg/injection, schedule: Q01DX009 (ip), vehicle: saline
# [3] = dose: 100.0 mg/kg/injection, schedule: Q04DX003 (ip), vehicle: Klucel (hydroxypropylcellulose) (HPC)
# [4] = dose: 200.0 mg/kg/injection, schedule: Q04DX003 (ip), vehicle: Klucel (hydroxypropylcellulose) (HPC)
structure (smiles),measurement,setting,value
ClCCN(CCCl)CCc1ccccc1,T/C,"dose: 2.0 mg/kg/injection, schedule: Q01DX009 (ip), vehicle: saline",145 % of control [survivor count not shown]
same,T/C,"dose: 3.13 mg/kg/injection, schedule: Q01DX009 (ip), vehicle: saline",145 % of control [survivor count not shown] (2×)
same,T/C,"dose: 4.6 mg/kg/injection, schedule: Q01DX009 (ip), vehicle: saline",154 % of control [survivor count not shown]
same,T/C,"dose: 12.5 mg/kg/injection, schedule: Q04DX003 (ip), vehicle: saline with Tween-80",91 % of control [survivor count not shown]
O=P(Cl)(Cl)N(CCCl)CCCl,T/C,"dose: 3.12 mg/kg/injection, schedule: Q01DX009 (ip), vehicle: saline with Tween-80",106 [survivor count not shown] and 129 % of control [survivor count not shown]
same,T/C,"dose: 6.25 mg/kg/injection, schedule: Q01DX009 (ip), vehicle: saline with Tween-80",109 [survivor count not shown] and 151 % of control [survivor count not shown]
same,T/C,"dose: 12.5 mg/kg/injection, schedule: Q01DX009 (ip), vehicle: saline with Tween-80",116 [survivor count not shown] and 129 % of control [survivor count not shown]
same,T/C,[1],129 [survivor count not shown] and 133 % of control [survivor count not shown]
BrCCN(CCBr)c1ccc2c(c1)Cc1ccccc1-2,T/C,"dose: 0.66 mg/kg/injection, schedule: Q01DX009 (ip), vehicle: saline with Tween-80",104 % of control [survivor count not shown]
same,T/C,"dose: 1.0 mg/kg/injection, schedule: Q01DX009 (ip), vehicle: saline with Tween-80",114 % of control [survivor count not shown]
same,T/C,"dose: 1.5 mg/kg/injection, schedule: Q01DX009 (ip), vehicle: saline with Tween-80",102 % of control [survivor count not shown]
same,T/C,"dose: 2.25 mg/kg/injection, schedule: Q01DX009 (ip), vehicle: saline with Tween-80",152 % of control [survivor count not shown]
same,T/C,"dose: 3.0 mg/kg/injection, schedule: Q01DX009 (ip), vehicle: saline with Tween-80",151 % of control [survivor count not shown]
same,T/C,"dose: 6.0 mg/kg/injection, schedule: Q01DX009 (ip), vehicle: saline with Tween-80",169 % of control [survivor count not shown]
same,T/C,"dose: 12.0 mg/kg/injection, schedule: Q01DX009 (ip), vehicle: saline with Tween-80",168 [survivor count not shown] and 200 % of control [survivor count not shown]
same,T/C,"dose: 16.5 mg/kg/injection, schedule: Q01DX009 (ip), vehicle: saline with Tween-80",190 % of control [survivor count not shown]
same,T/C,"dose: 18.0 mg/kg/injection, schedule: Q01DX009 (ip), vehicle: saline with Tween-80",195 % of control [survivor count not shown]
same,T/C,"dose: 24.0 mg/kg/injection, schedule: Q01DX009 (ip), vehicle: saline with Tween-80",153 % of control [survivor count not shown]
same,T/C,[1],136 [survivor count not shown] and 230 % of control [survivor count not shown]
same,T/C,"dose: 26.5 mg/kg/injection, schedule: Q01DX009 (ip), vehicle: saline with Tween-80",170 % of control [survivor count not shown]
same,T/C,"dose: 37.5 mg/kg/injection, schedule: Q01DX009 (ip), vehicle: saline with Tween-80",135 % of control [survivor count not shown]
same,T/C,"dose: 40.0 mg/kg/injection, schedule: Q01DX009 (ip), vehicle: saline with Tween-80",125 % of control [survivor count not shown]
same,T/C,"dose: 48.0 mg/kg/injection, schedule: Q01DX009 (ip), vehicle: saline with Tween-80",102 % of control [survivor count not shown]
same,T/C,"dose: 50.0 mg/kg/injection, schedule: Q01DX009 (ip), vehicle: saline with Tween-80",104 % of control [survivor count not shown]
same,T/C,"dose: 60.0 mg/kg/injection, schedule: Q01DX009 (ip), vehicle: saline with Tween-80",120 % of control [survivor count not shown]
same,T/C,"dose: 100.0 mg/kg/injection, schedule: Q01DX009 (ip), vehicle: saline with Tween-80",95 % of control [survivor count not shown]
COc1ccc(C(=O)O)cc1N(CCCl)CCCl,T/C,"dose: 1.0 mg/kg/injection, schedule: Q01DX009 (ip), vehicle: Klucel (hydroxypropylcellulose) (HPC)",124 [survivor count not shown] and 133 % of control [survivor count not shown]
same,T/C,"dose: 2.0 mg/kg/injection, schedule: Q01DX009 (ip), vehicle: Klucel (hydroxypropylcellulose) (HPC)",147 [survivor count not shown] and 155 % of control [survivor count not shown]
same,T/C,"dose: 4.0 mg/kg/injection, schedule: Q01DX009 (ip), vehicle: Klucel (hydroxypropylcellulose) (HPC)",140 [survivor count not shown] and 163 % of control [survivor count not shown]
same,T/C,"dose: 8.0 mg/kg/injection, schedule: Q01DX009 (ip), vehicle: Klucel (hydroxypropylcellulose) (HPC)",153 [survivor count not shown] and 200 % of control [survivor count not shown]
same,T/C,"dose: 16.0 mg/kg/injection, schedule: Q01DX009 (ip), vehicle: Klucel (hydroxypropylcellulose) (HPC)",213 % of control [survivor count not shown]
O=C(O)CCc1ccc(CN(CCCl)CCCl)cc1,T/C,"dose: 1.25 mg/kg/injection, schedule: Q01DX009 (ip), vehicle: saline",100 % of control [survivor count not shown]
same,T/C,"dose: 1.65 mg/kg/injection, schedule: Q04DX003 (ip), vehicle: saline",154 % of control [survivor count not shown]
same,T/C,"dose: 2.5 mg/kg/injection, schedule: Q01DX009 (ip), vehicle: saline",108 % of control [survivor count not shown]
same,T/C,"dose: 2.5 mg/kg/injection, schedule: Q04DX003 (ip), vehicle: saline",163 % of control [survivor count not shown]
same,T/C,"dose: 3.75 mg/kg/injection, schedule: Q04DX003 (ip), vehicle: saline",190 % of control [survivor count not shown]
same,T/C,"dose: 5.0 mg/kg/injection, schedule: Q01DX009 (ip), vehicle: saline",100 % of control [survivor count not shown]
same,T/C,"dose: 5.0 mg/kg/injection, schedule: Q04DX003 (ip), vehicle: saline with Tween-80",160 % of control [survivor count not shown]
CC(C)N1CCC(N(C(=O)Cc2ccccc2)c2ccc(Cl)cc2)CC1,T/C,[2],97 % of control
same,T/C,"dose: 100.0 mg/kg/injection, schedule: Q01DX009 (ip), vehicle: saline",100 % of control
same,survivor count,"dose: 200.0 mg/kg/injection, schedule: Q01DX009 (ip), vehicle: saline",0 of 6
COC(=O)c1ccc(C)c(N(CCCl)CCCl)c1,T/C,"dose: 25.0 mg/kg/injection, schedule: Q01DX005 (ip), vehicle: saline with Tween-80",185 % of control
same,T/C,"dose: 50.0 mg/kg/injection, schedule: Q01DX005 (ip), vehicle: saline with Tween-80",280 and 303 % of control
same,T/C,"dose: 100.0 mg/kg/injection, schedule: Q01DX005 (ip), vehicle: saline with Tween-80",133 and 161 % of control
same,survivor count,"dose: 200.0 mg/kg/injection, schedule: Q01DX005 (ip), vehicle: saline with Tween-80",0 of 6 and 2 of 6
ClCCN(CCCl)C1CCOc2ccccc21 (centres undefined),T/C,"dose: 50.0 mg/kg/injection, schedule: Q04DX003 (ip), vehicle: Klucel (hydroxypropylcellulose) (HPC)",254 % of control [survivor count not shown]
same,T/C,[3],172 % of control [survivor count not shown]
same,T/C,[4],142 % of control [survivor count not shown]
S=P(Cl)(Cl)Cl,T/C,"dose: 12.5 mg/kg/injection, schedule: Q01DX009 (ip), vehicle: saline",100 % of control [survivor count not shown]
same,T/C,"dose: 25.0 mg/kg/injection, schedule: Q01DX009 (ip), vehicle: saline",100 % of control [survivor count not shown]
same,T/C,[2],90 % of control [survivor count not shown]
CC12CCC(/C(=C/N(CCCl)CCCl)C1=O)C2(C)C (centres undefined),T/C,[3],107 % of control [survivor count not shown]
same,T/C,[4],105 % of control [survivor count not shown]
same,T/C,"dose: 400.0 mg/kg/injection, schedule: Q04DX003 (ip), vehicle: Klucel (hydroxypropylcellulose) (HPC)",106 % of control [survivor count not shown]
